Data as given in PubChem BioAssay AID540256 (National Center for Advancing Translational Sciences (NCATS), 2011).
Where “and” joins values, the source holds several entries; their conditions need not be identical. Equal values may be shown once. The campaign covered roughly 300,000 compounds. About 3,700 (1.2%) were called active. This list was built around the results that the source calls inconclusive (neither active nor inactive); the mix of calls is not that of the screen. The call rests on the fitted dose curve; tested in HEK293 cells. Potencies of inconclusive entries are doubtful fits and often do not repeat.
Potency means the concentration at half of the fitted maximal effect.

Assay: qHTS for Inhibitors of binding or entry into cells for Lassa Virus; further: nearly all actives have a fitted effect of over 50% in size
Settings: Lassa virus pseudotype entry inhibition, cell reporter; series mostly up to 37.9 µM
In the case of CC(=O)Oc1cc2c(cc1Cl)C1(CC(c3ccccc3Cl)O2)CC(C)(C)NC(=S)N1 (stereo not given), the Potency is reported as inconclusive: 29.1 µM [inhibitor, single point].
For COc1ccc(NCC(=O)NN=C2CCS(=O)(=O)c3ccc(F)cc32)cc1, the Potency was inconclusive: 14.1 µM [inhibitor, partial curve, poor fit].
In the case of COc1ccc(-c2cc(C(=O)O)c(C)o2)cc1OC, the Potency is reported as inconclusive: 29.1 µM [inhibitor, single point].
With O=C(Cc1cccs1)NCc1cc(Cl)cc(Cl)c1 the Potency was inconclusive: 35.5 µM [inhibitor, single point].
For N/C(=N\N=C\c1ccnc2ccccc12)SC1CC(=O)N(c2ccc(Br)cc2)C1=O (stereo not given), the Potency was inconclusive: 11.2 µM [inhibitor, partial curve, poor fit].
For COc1ccccc1-c1nc2ccccc2nc1-c1ccccc1, the Potency was inconclusive: 16.4 µM [inhibitor, partial curve, poor fit].
For O=C(c1ccc(S(=O)(=O)c2ccccc2Cl)c([N+](=O)[O-])c1)N1CCCCCC1, the Potency was “inactive”.
For CC(C)(C)NC(=O)CN1CCN(C(=O)CCl)CC1, the Potency was inconclusive: 35.5 µM [inhibitor, single point].
In the case of CCOc1cc(C2C(C(=O)Nc3ccc(OC)cc3)=C(C)Nc3nc(SC)nn32)ccc1O (stereo not given), the Potency is reported as inconclusive: 35.5 µM [inhibitor, single point].
For COc1cc(NC(=O)CCC(=O)c2cccs2)cc(OC)c1, the Potency was “inactive”.
In the case of O=C(c1cccc(Cl)c1)N1CCN(c2ncnc3c2cnn3-c2ccccc2)CC1, the Potency is reported as inconclusive: 28.2 µM [activator, single point].
With CCOc1ccccc1NC(=O)CCn1c(=O)oc2ccccc21 the Potency was “inactive”.
For CC(C)C(NC(=O)C1CCCCC1)C(=O)NC1=NCCS1 (stereo not given), the Potency was inconclusive: 0.891 µM [inhibitor, single point].
For CCOC(=O)C1CCCN(C(=O)c2cnn3c(C(F)(F)F)cc(-c4ccccc4)nc23)C1 (stereo not given), the Potency was inconclusive: 23.1 µM [inhibitor, single point].
For CC(C)CCNC(=O)CN(Cc1cccs1)C(=O)CCC(=O)Nc1nccs1, the Potency was inconclusive: 2.31 µM [inhibitor, partial curve, poor fit].
With Cc1[nH]c2ccccc2c1/C=N/Nc1ccc([N+](=O)[O-])cc1 the Potency was “inactive”.
In the case of c1ccc(-c2csc3ncnc(N4CCc5ccccc5C4)c23)cc1, the Potency is reported as inconclusive: 23.1 µM [inhibitor, single point].
In the case of COc1ccc(/C=C2\CN(Cc3ccccc3)C/C(=C\c3ccc(OC)cc3OC)C2=O)c(OC)c1, the Potency is reported as inconclusive: 3.66 µM [inhibitor, full curve].
In the case of O=C(/C=C/c1ccccc1)NC1CC2CCC1C2 (stereo not given), the Potency is reported as inconclusive: 18.4 µM [activator, single point] and inconclusive: 5.01 µM [activator, full curve, poor fit].
In the case of Cc1ccc2c(=O)cc(C(=O)Nc3ccc(S(=O)(=O)Nc4nc(C)cc(C)n4)cc3)oc2c1, the Potency is reported as “inactive”.
In the case of COc1ccc(NC(=O)C2CCCN(S(=O)(=O)c3ccc4c(c3)CCCC(=O)N4)C2)cc1OC (stereo not given), the Potency is reported as inconclusive: 2.24 µM [activator, full curve, poor fit].
With Cc1ccc(S(=O)(=O)N2CCCCC2)cc1NC(=O)Cn1ccc(C(F)(F)F)n1 the Potency was “inactive”.
With CCOc1ccc(S(=O)(=O)N2CCC(C(=O)OCc3ccc(OC)cc3)CC2)cc1 the Potency was inconclusive: 11.2 µM [inhibitor, partial curve, poor fit].
For CCC(C)(C)NC(=O)C(c1ccco1)N(C(=O)Cn1nnc2ccccc21)c1ccc2c(c1)OCO2 (stereo not given), the Potency was inconclusive: 35.5 µM [inhibitor, single point].
With CCCNC(=O)c1ccc2c(c1)CCN2S(C)(=O)=O the Potency was inconclusive: 3.16 µM [activator, full curve, poor fit].
For Cc1ccc(NC(=O)C2CCCN2S(=O)(=O)c2ccc3nc(-c4ccccc4)[nH]c3c2)cc1F (stereo not given), the Potency was inconclusive: 35.5 µM [inhibitor, single point].
In the case of COc1ccc(NC(=O)NNC(=O)COc2cc(C)c(Cl)c(C)c2)c(OC)c1, the Potency is reported as inconclusive: 0.891 µM [inhibitor, partial curve, poor fit].
In the case of C=CCC(Nc1ccc(OC)cc1)(C(=O)OCC)c1ccccc1 (stereo not given), the Potency is reported as inconclusive: 2.11 µM [activator, single point].
In the case of Cc1ccc(C)c(N2CN(Cc3cccnc3)CNC2=S)c1, the Potency is reported as “inactive”.
With O=C(OC(c1ccccc1)c1nccc2ccccc12)c1cccc([N+](=O)[O-])c1 (stereo not given) the Potency was “inactive”.
In the case of CN(CCc1ccccn1)C1CC(=O)N(c2ccc(Cl)cc2)C1=O (stereo not given), the Potency is reported as “inactive”.
In the case of CCCCS(=O)(=O)CC(COc1ccccc1)OC(=O)c1ccccc1 (stereo not given), the Potency is reported as “inactive”.
For COc1cccc(-c2ccc(NC(=O)C3CCCN(Cc4cnc(C)n4C)C3)cc2)c1 (stereo not given), the Potency was inconclusive: 35.5 µM [inhibitor, single point].
For O=C(CSCc1ccccc1)Nc1ccccc1, the Potency was inconclusive: 4.47 µM [activator, full curve, poor fit].
In the case of Cc1nnc(NC(=O)c2ccc3ccccc3c2)o1, the Potency is reported as inconclusive: 0.631 µM [inhibitor, full curve, poor fit].
With CCOc1ccc(C(=O)NCC(=O)OCc2c(F)cccc2Cl)cc1OCC the Potency was inconclusive: 5.62 µM [inhibitor, partial curve, poor fit].
In the case of COc1ccc(Cl)cc1S(=O)(=O)N1CCN(C(=O)c2n[nH]c(=O)c3ccccc23)CC1, the Potency is reported as inconclusive: 35.5 µM [inhibitor, partial curve, poor fit].
For Cc1ccc(N2C(=O)NC(NS(=O)(=O)c3ccc(Cl)cc3)(C(F)(F)F)C2=O)cc1C (stereo not given), the Potency was “inactive”.
With Cc1c(C(=O)N(Cc2cccs2)C2CCS(=O)(=O)C2)oc2ccccc12 (stereo not given) the Potency was inconclusive: 1.46 µM [inhibitor, full curve, poor fit].
With Cn1ccc2c(-c3ccc(C(C)(C)C)cc3)cc3c(c21)C1CCC3O1 (stereo not given) the Potency was inconclusive: 35.3 µM [inhibitor, partial curve, poor fit].
In the case of OCC(Cc1ccccc1)NCc1ccccc1C(F)(F)F (stereo not given), the Potency is reported as “inactive”.
For CCc1ccc(NC(=O)Cn2c(=O)n(Cc3nc(-c4ccccc4)no3)c(=O)c3cc4c(cc32)OCO4)cc1, the Potency was “inactive”.
For COc1ccc(NC(=O)c2cc(S(=O)(=O)NCC3COc4ccccc4O3)ccc2F)cc1 (stereo not given), the Potency was “inactive”.
In the case of CCCC(=O)N1CC(=O)Nc2ccc(Cl)cc2C1c1ccccc1 (stereo not given), the Potency is reported as inconclusive: 1.12 µM [activator, full curve, poor fit].
In the case of CCOC(=O)CC1C(=O)NC2CCCCC2N1C(=O)Nc1ccc(Cl)cc1 (stereo not given), the Potency is reported as “inactive”.
In the case of C[C@@H]1C=C[C@](Cc2ccccc2)(C(=O)NCC2CC2)N1C(=O)c1ccccc1, the Potency is reported as inconclusive: 1.84 µM [activator, partial curve, poor fit].
For CCCCC(=O)OC1=C(C(C)=O)N(Cc2ccccc2)S(=O)(=O)c2ccccc21, the Potency was “inactive”.
For O=C(Cn1nc(-c2ccccc2)nc(Cc2ccccc2)c1=O)Nc1ccccc1, the Potency was “inactive”.
For CCc1ccc(C(=O)Nc2nnn(CC)n2)cc1, the Potency was inconclusive: 20.6 µM [inhibitor, single point].
In the case of CCCCc1ccc2[nH]cc(CCN)c2c1, the Potency is reported as inconclusive: 18.3 µM [inhibitor, single point].
With COc1ccc(OC)c(NC(=O)c2ccc(S(=O)(=O)N3CCOCC3)cc2)c1 the Potency was inconclusive: 0.398 µM [inhibitor, partial curve, poor fit].
In the case of COc1cc(/C=C/C(=O)OCC(=O)Nc2cccc(Oc3ccccc3)c2)ccc1O, the Potency is reported as inconclusive: 29.1 µM [inhibitor, single point].
In the case of O=C(N/N=C1/CC2C=CCC12)c1ccco1 (stereo not given), the Potency is reported as inconclusive: 2.91 µM [activator, partial curve, poor fit].
For CC1Cc2cc(/C(O)=C3/C(=O)C(=O)N(Cc4ccco4)C3c3cccs3)ccc2O1 (stereo not given), the Potency was “inactive”.
For Cc1ccn2c(Nc3ccc(F)cc3)c(-c3ccccn3)nc2c1, the Potency was “inactive”.
With COc1cc(-c2nnc(COC(=O)c3cc(C)nc4ccc(C)cc34)o2)cc(OC)c1OC the Potency was “inactive”.
With CCCCC(=O)Nc1ccc(C2C(=O)c3ccccc3C2=O)cc1 the Potency was inconclusive: 14.1 µM [inhibitor, single point].
With O=C(COC(=O)C1CCCCC1)Nc1ccc(N2CCCCC2)cc1 the Potency was inconclusive: 15.8 µM [activator, single point].
For Cc1ccc(C)c(SCC(=O)NC(=O)NCc2ccccc2)c1, the Potency was inconclusive: 3.16 µM [inhibitor, full curve, poor fit].
In the case of Cc1ccc(S(=O)(=O)N2CCN(C(=O)CCc3nc4ccccc4c(=O)[nH]3)CC2)c(C)c1, the Potency is reported as inconclusive: 35.5 µM [inhibitor, single point].
With CCc1cccc(N(CC(=O)NC2CCCCC2)C(=O)c2csnn2)c1 the Potency was inconclusive: 6.31 µM [inhibitor, single point].
For COc1ccc(CCN2C(=O)CC(N3CCN(C/C=C/c4ccccc4)CC3)C2=O)cc1OC (stereo not given), the Potency was inconclusive: 35.5 µM [inhibitor, single point].
In the case of Cc1ccc(NC(=O)CN2C(=O)NC(Cc3c[nH]c4ccccc34)C2=O)cc1S(=O)(=O)N1CCCCC1 (stereo not given), the Potency is reported as “inactive”.
For Cc1cncn1CCc1nc2c3ccccc3nc(SCC(=O)Nc3cccc(Cl)c3)n2n1, the Potency was inconclusive: 16.4 µM [inhibitor, single point] and inconclusive: 22.4 µM [inhibitor, single point].
With Cc1ccc(C)c(N2CCN(C(=O)c3csc(C)c3C)CC2)c1 the Potency was inconclusive: 20 µM [inhibitor, partial curve, poor fit].
